Results taken from paper PMC7819943, “Rice protein-binding microarrays: a tool to detect cis-acting elements near promoter regions in rice”.
This is one part of the list.

molecular target: T1, OsSMF1 (Oryza sativa, UniProt Q6ZLB0 1-436); experiment: protein-binding microarray (RPBM); PBS, 2% BSA, 51.3 ng/ul salmon testes DNA, 50 uM zinc acetate, 200 nM TF, 25 C, 1 h; high values mean tight binding; conditions: protein: recombinant; tags: N-terminal polyhistidine and DsRed monomer fusion (pET32a); chain copies: 2; label: CyDye5-dUTP incorporated in the synthesized complementary strand; 3' TTTTT single-stranded linker to array surface; dsDNA, one strand shown
T1 sequence: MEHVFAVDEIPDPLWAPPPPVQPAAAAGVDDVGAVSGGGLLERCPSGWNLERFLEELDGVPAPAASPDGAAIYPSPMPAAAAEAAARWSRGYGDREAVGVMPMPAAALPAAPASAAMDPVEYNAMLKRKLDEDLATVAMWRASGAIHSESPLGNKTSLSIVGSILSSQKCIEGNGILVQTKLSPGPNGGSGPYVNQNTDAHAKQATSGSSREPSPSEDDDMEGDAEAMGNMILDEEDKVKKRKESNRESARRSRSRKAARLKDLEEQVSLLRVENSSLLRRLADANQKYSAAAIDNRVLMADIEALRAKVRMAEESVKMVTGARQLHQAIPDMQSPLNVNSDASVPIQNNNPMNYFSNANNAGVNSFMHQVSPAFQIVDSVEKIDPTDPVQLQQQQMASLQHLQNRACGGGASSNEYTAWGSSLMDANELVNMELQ
Outline: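 Ni–NTA purification followed expression in E. coli BL21-CodonPlus of transcription factors fused N-terminally to a polyhistidine tag and DsRed. At 200 nM in PBS with 2% BSA, salmon testes DNA and 50 µM zinc acetate, the protein was incubated for 1 h at 25 °C with a custom Agilent array that had been primer-extended with Cy5-dUTP and blocked with 2% BSA. After washing, the array was read on an Axon 4000B scanner. The binding signal is per-feature fluorescence intensity in arbitrary units.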

First: CTTATTATGGTTATATGTGCAGGTATGGAGTAATAACTGACGGAGTCACCTAGTGCAG
Second: ACCGTGACCCTGCCACCTCCTCCGGCGACCGGGGCAACCGCGGAGTCACCTAGTGCAG
The binding signal of the first is higher: 46400 fluorescence intensity (a.u.) for the first, 3260 fluorescence intensity (a.u.) for the second.

Compared with “TTGGTGGTGAAGGGGAGGGCGCATGCGACGTGGAGGGTGTCGGAGTCACCTAGTGCAG”, “ACGTTCATGGCCAGTAATTGTGTGACTTCACCGTCGGTCCCGGAGTCACCTAGTGCAG” is lower in binding signal: 7990 fluorescence intensity (a.u.) for the first, 4240 fluorescence intensity (a.u.) for the second.

Compared with “ATTCGGCCTCGTGGCTATGTACGCTGAGTGTACGAACGTGCGGAGTCACCTAGTGCAG”, “AGCTTAGCTACTTATTAATTAGACAATTACTGTATGCATGCGGAGTCACCTAGTGCAG” is higher in binding signal: 4020 fluorescence intensity (a.u.) for the first, 29800 fluorescence intensity (a.u.) for the second.

Going from “AGCGCCGAGACCAACGGCCAGCCACGCAGCCTCCTCGACCCGGAGTCACCTAGTGCAG” to “ACCTATGTATAGTTAGTGTTGTCGTGGTGTAATTTCAACGCGGAGTCACCTAGTGCAG”, the binding signal falls from 4270 fluorescence intensity (a.u.) to 3140 fluorescence intensity (a.u.).

Going from “TCAGCAAGTTGCCCATTCCTATTCTGCCTGACGCATCGTGCGGAGTCACCTAGTGCAG” to “CACAATATTAATATTATGGCTTAAATAATTGGTTTTACGACGGAGTCACCTAGTGCAG”, the binding signal rises from 3150 fluorescence intensity (a.u.) to 24100 fluorescence intensity (a.u.).

Going from “ATAAGGGCCAGCATGTACGTGACAGTGCCATTCGGGCCCACGGAGTCACCTAGTGCAG” to “AGTTTCACAACCCGCGCAGACACTGGCATCGGTGTCATCGCGGAGTCACCTAGTGCAG”, the binding signal falls from 4850 fluorescence intensity (a.u.) to 3940 fluorescence intensity (a.u.).

First: AGAGGAATAAGAGGAAGGGGAGGAAATTTTCGAAACGCGACGGAGTCACCTAGTGCAG
Second: TATGATGATTAATGATATAATAATAAGTATGACGGACAATCGGAGTCACCTAGTGCAG
The binding signal of the first is higher: 26700 fluorescence intensity (a.u.) for the first, 4790 fluorescence intensity (a.u.) for the second.

Going from “CAATTTCAGAAACCAAGAGATTCCCCTTCGCCAACTCAGCCGGAGTCACCTAGTGCAG” to “TTGATTAATATTATGTGTACACAAAGTTGTCACCATCCATCGGAGTCACCTAGTGCAG”, the binding signal falls from 7000 fluorescence intensity (a.u.) to 3970 fluorescence intensity (a.u.).

Compared with “GGGCAGCCACCTCTCCTGGGTCCCCTCCACCTCCTCCTACCGGAGTCACCTAGTGCAG”, “GGAAGCGGCTGCTGACAATGGGGATTAGATAGGCTAAGGGCGGAGTCACCTAGTGCAG” is lower in binding signal: 24600 fluorescence intensity (a.u.) for the first, 3700 fluorescence intensity (a.u.) for the second.

Compared with “GCTCACGAGCCCCACGCCTCGATCCGTCCATACAGCGACGCGGAGTCACCTAGTGCAG”, “TTTACAAGTGATACAACAACGTGGTTTGCATAATGCGTCACGGAGTCACCTAGTGCAG” is lower in binding signal: 30100 fluorescence intensity (a.u.) for the first, 3960 fluorescence intensity (a.u.) for the second.

Compared with “ACTGAACACGGCTCGGTCCACGTACGAAGTCTTCGCGGAGCGGAGTCACCTAGTGCAG”, “CAACATTGAAAATATCAGGTTGGGGCGCATGACTGTATCACGGAGTCACCTAGTGCAG” is lower in binding signal: 5430 fluorescence intensity (a.u.) for the first, 5230 fluorescence intensity (a.u.) for the second.

Going from “TTGGGTGGGCCGTCAAACGTACGTATGTAAGCCCATGGTTCGGAGTCACCTAGTGCAG” to “TGTAGACGGCCGGTCACACTATCTTTATGCTGAGTCATGTCGGAGTCACCTAGTGCAG”, the binding signal rises from 3970 fluorescence intensity (a.u.) to 12000 fluorescence intensity (a.u.).

Compared with “CTCCTCGTCGTCGTCGTCGTCGTCGTCGTCTCCTCGCCGCCGGAGTCACCTAGTGCAG”, “GGGATAGAACTGGGCCTGAAGGCCTGATCTGTCAAGATATCGGAGTCACCTAGTGCAG” is lower in binding signal: 4430 fluorescence intensity (a.u.) for the first, 3400 fluorescence intensity (a.u.) for the second.

Going from “GAAGGCAAATGTCTTACTTGACCACCAGCTGTGGCATGTGCGGAGTCACCTAGTGCAG” to “GCCTCCATAGGTAAGGTGTTAGTGGGAGAGAATAAGATGACGGAGTCACCTAGTGCAG”, the binding signal rises from 3340 fluorescence intensity (a.u.) to 4670 fluorescence intensity (a.u.).

Going from “ATTGCCACACATGACACATCTCTGACTATGTGTAATCATTCGGAGTCACCTAGTGCAG” to “CGCGCGCTCGGTCCAGGCTTGAATCCCTTTGCTCCCTTCGCGGAGTCACCTAGTGCAG”, the binding signal falls from 8070 fluorescence intensity (a.u.) to 3560 fluorescence intensity (a.u.).

Going from “AGGGGAGGAGGTGACTGCCACCATGGCCTCGCCCTCCTTGCGGAGTCACCTAGTGCAG” to “CCTCCATCTCCATCTCCTCTTCGAGTCCTCGTCGTCGTGGCGGAGTCACCTAGTGCAG”, the binding signal rises from 3530 fluorescence intensity (a.u.) to 3640 fluorescence intensity (a.u.).

First: TCCCCAGCCGCCACCCACACACAAGCGCGCCGTTGGCCGTCGGAGTCACCTAGTGCAG
Second: GCCACTAACCGCTTGATGCGTGCACGTCAGATCATATGCCCGGAGTCACCTAGTGCAG
The binding signal of the first is lower: 3960 fluorescence intensity (a.u.) for the first, 9350 fluorescence intensity (a.u.) for the second.

First: GATGGCGCAGGGGAGGAAAGCGCGTACGTACCAGCGCCTCCGGAGTCACCTAGTGCAG
Second: GGTAGGGATTGAGGTTTGGTGGAGATTGATACAACCCCTTCGGAGTCACCTAGTGCAG
The binding signal of the first is lower: 3260 fluorescence intensity (a.u.) for the first, 15000 fluorescence intensity (a.u.) for the second.

Compared with “AATGTCATACTGCACCGACTTTCCAGTCCAACTCAGCACACGGAGTCACCTAGTGCAG”, “GCATATCGGATCATAATAAACTGTGTACGCAATCGCACCACGGAGTCACCTAGTGCAG” is lower in binding signal: 5610 fluorescence intensity (a.u.) for the first, 3320 fluorescence intensity (a.u.) for the second.

Going from “CCGTCATGCCGCGCGAGCGTGTGACTGTGGACTGTGGTGTCGGAGTCACCTAGTGCAG” to “AAGTTCAAGGGCCTCTGGCCTCCACCTCACCAAACGCCGACGGAGTCACCTAGTGCAG”, the binding signal rises from 3960 fluorescence intensity (a.u.) to 5220 fluorescence intensity (a.u.).

First: AGCCCCATGTGCCGGCTCACACACCTGTTTTCGGTAGTCTCGGAGTCACCTAGTGCAG
Second: CTAACAAGCAAAGGCGTCAGCATGTTAAGGCTCAGAGAAACGGAGTCACCTAGTGCAG
The binding signal of the first is higher: 12200 fluorescence intensity (a.u.) for the first, 3500 fluorescence intensity (a.u.) for the second.

“CACATGAGTCAATGACATGTGGGTCAGGATGGCATATCTCCGGAGTCACCTAGTGCAG” and “GGTCACCTTTGACGGGTCCTACGGGATACCGTCATCGGTGCGGAGTCACCTAGTGCAG” are the same in binding signal: 3420 fluorescence intensity (a.u.) for the first, 3420 fluorescence intensity (a.u.) for the second.

Going from “AGGCCTTACCCAGACACGCAAGCAGTCAGTCACAACACATCGGAGTCACCTAGTGCAG” to “GCGGCAGCCTCCGATCGCGTCATCGCGCGCCACCTCGATACGGAGTCACCTAGTGCAG”, the binding signal rises from 7160 fluorescence intensity (a.u.) to 8620 fluorescence intensity (a.u.).

Compared with “TTGTAACGAACTGGAATCAGCTAGAATGACAATATAGCACCGGAGTCACCTAGTGCAG”, “TTATGTACAATGTATGTGGCAGGTGGCACGATTGGCAAGTCGGAGTCACCTAGTGCAG” is higher in binding signal: 3270 fluorescence intensity (a.u.) for the first, 4350 fluorescence intensity (a.u.) for the second.

Going from “ATAATTTCTAAAATACTTATCTTAGATACATAAAGATTATCGGAGTCACCTAGTGCAG” to “TTGGAGTGGTGGGGATGCTGAAGTGGAACTGACCTTAACTCGGAGTCACCTAGTGCAG”, the binding signal falls from 23700 fluorescence intensity (a.u.) to 3970 fluorescence intensity (a.u.).

Going from “GCCCAGACCACGCAAGCGGAGCGGTGCGTGACGGTGACCGCGGAGTCACCTAGTGCAG” to “CTCTCCTGCTCATAGAGCGCCTTCGCTGTCGACGTCCCTCCGGAGTCACCTAGTGCAG”, the binding signal falls from 4430 fluorescence intensity (a.u.) to 3210 fluorescence intensity (a.u.).

First: TAACATGGTGATGACGCACTCATATCTGATGAAGCCACCTCGGAGTCACCTAGTGCAG
Second: GAGCTAGCTTGTGGGGCCCACATGTCAATGATAAAGATAACGGAGTCACCTAGTGCAG
The binding signal of the first is higher: 9520 fluorescence intensity (a.u.) for the first, 3580 fluorescence intensity (a.u.) for the second.
